Test system: PMN recruitment into the lung and airway lumen
Assay: Adult C57BL/6 mouse P. aeruginosa infection with bronchoalveolar lavage
Type: in vivo
Conditions: 2 hr infection
Procedure: To test the effects of calpain inhibition on the transmigration of PMNs into P. aeruginosa-infected airways, bronchoalveolar lavage (BAL) experiments were performed on adult C57BL/6 mice. Mice were treated with i.p. calpeptin or vehicle and intranasally infected with P. aeruginosa for 2 hr. PMNs from BAL or whole-lung suspension were quantified by flow cytometry. Compared to vehicle-treated controls, calpeptin-treated mice had 37% fewer PMNs recruited into the whole lung and 90% fewer into the airway lumen, indicating a more pronounced effect on the epithelial junctions (FIG. 8D). […] Thus, recruitment of PMNs into the murine lung and airway lumen in response to P. aeruginosa is facilitated by calpain activity and its effects on junctional proteins at the mucosal surface.

CCCC[C@@H](C=O)NC(=O)[C@H](CC(C)C)NC(=O)OCc1ccccc1 [calpeptin, Z-Leu-Nle-CHO]
CXCL1 (KC) levels in the lung: did not affect

Source: patent US20110117106A1, “USES OF CALPAIN INHIBITORS TO INHIBIT INFLAMMATION” (priority 2008, published 2011)
